Data taken from patent publication US9925187B2, “Pyrazolopyridazines and methods for treating retinal-degenerative diseases and hearing loss associated with usher syndrome” (Usher III Initiative, Inc., priority 2011, dated 2018).
Some results were stated once for a whole list of compounds, not compound by compound.

The compounds below were run on N48K Clarin-1 (assay: Restoration of N48K Clarin-1 expression in HEK293-Clarin-1 N48K-HA D9 cells (HA-tag immunostaining, high content imaging)). Settings: HEK293-Clarin-1 N48K-HA D9 cell line, 24 hr incubation with compound, HA-Clarin-1 staining density per cell; listed as compound 75; read-out: IC50 values for activity according to the assay method of Example 92.
Assay type: cell-based
In the case of `O=C(Cn1nc(-c2ccc(F)cc2)c2c(Cl)c(-c3ccccc3)nnc21)N1CCOCC1` [Compound 75, 2-(4-chloro-3-(4-fluorophenyl)-5-phenyl-1H-pyrazolo[3,4-c]pyridazin-1-yl)-1-morpholinoethanone], the IC50 is reported as ≤ 5 µM.

Same assay, conditions: HEK293-Clarin-1 N48K-HA D9 cell line, 24 hr incubation with compound, HA-Clarin-1 staining density per cell; listed as compound 78; read-out: IC50 values for activity according to the assay method of Example 92
In the case of `Fc1ccc(-c2nn(CCN3CCOCC3)c3nnc(-c4ccccc4)c(Cl)c23)cc1` [Compound 78, 4-(2-(4-chloro-3-(4-fluorophenyl)-5-phenyl-1H-pyrazolo[3,4-c]pyridazin-1-yl)ethyl)morpholine], the IC50 is reported as ≤ 5 µM.

Same assay, conditions: HEK293-Clarin-1 N48K-HA D9 cell line, 24 hr incubation with compound, HA-Clarin-1 staining density per cell; listed as compound 80; read-out: IC50 values for activity according to the assay method of Example 92
`O=C(Cn1nc(-c2ccc(F)cc2)c2c(Cl)c(-c3ccccc3)nnc21)N1CCCC1` [Compound 80, 2-(4-chloro-3-(4-fluorophenyl)-5-phenyl-1H-pyrazolo[3,4-c]pyridazin-1-yl)-1-(pyrrolidin-1-yl)ethanone] was tested, and the IC50 was ≤ 5 µM.

Same assay, conditions: HEK293-Clarin-1 N48K-HA D9 cell line, 24 hr incubation with compound, HA-Clarin-1 staining density per cell; listed as compound 82; read-out: IC50 values for activity according to the assay method of Example 92
`C=Cn1nc(-c2ccccc2)c2c(Cl)c(-c3ccccc3)nnc21` [Compound 82, 4-chloro-3,5-diphenyl-1-vinyl-1H-pyrazolo[3,4-c]pyridazine] was tested, and the IC50 was ≤ 5 µM.

Same assay, conditions: HEK293-Clarin-1 N48K-HA D9 cell line, 24 hr incubation with compound, HA-Clarin-1 staining density per cell; listed as compound 84; read-out: IC50 values for activity according to the assay method of Example 92
With `CN1CCN(CCn2nc(-c3ccccc3)c3c(Cl)c(-c4ccccc4)nnc32)CC1=O` [Compound 84, 4-(2-(4-chloro-3,5-diphenyl-1H-pyrazolo[3,4-c]pyridazin-1-yl)ethyl)-1-methylpiperazin-2-one] the IC50 was ≤ 5 µM.

Same assay, conditions: HEK293-Clarin-1 N48K-HA D9 cell line, 24 hr incubation with compound, HA-Clarin-1 staining density per cell; read-out: IC50 values for activity according to the assay method of Example 92
In the case of `CN1CCCN(C(=O)Cn2nc(-c3ccccc3)c3c(Cl)c(-c4ccccc4)nnc32)CC1` [Compound 65, 2-(4-chloro-3,5-diphenyl-1H-pyrazolo[3,4-c]pyridazin-1-yl)-1-(4-methyl-1,4-diazepan-1-yl)ethanone], the IC50 is reported as ≤ 10 µM.
`CC(=O)N1CCN(C(=O)Cn2nc(-c3ccccc3)c3c(Cl)c(-c4ccccc4)nnc32)CC1` [Compound 66, 1-(4-acetoylpiperazin-1-yl)-2-(4-chloro-3,5-diphenyl-1H-pyrazolo[3,4-c]pyridazin-1-yl)ethanone] was tested, and the IC50 was ≤ 10 µM.
With `CN(C)C1CCN(C(=O)Cn2nc(-c3ccccc3)c3c(Cl)c(-c4ccccc4)nnc32)C1` (stereo not shown) [Compound 67, 2-(4-chloro-3,5-diphenyl-1H-pyrazolo[3,4-c]pyridazin-1-yl)-1-(3-(dimethylamino)pyrrolidin-1-yl)ethanone] the IC50 was ≤ 10 µM.
In the case of `CN(C)CCCNC(=O)Cn1nc(-c2ccccc2)c2c(Cl)c(-c3ccccc3)nnc21` [Compound 68, 2-(4-chloro-3,5-diphenyl-1H-pyrazolo[3,4-c]pyridazin-1-yl)-N-(3-(dimethylamino)propyl)acetamide], the IC50 is reported as ≤ 10 µM.
For `O=C1CN(C(=O)Cn2nc(-c3ccccc3)c3c(Cl)c(-c4ccccc4)nnc32)CCN1` [Compound 69, 4-(2-(4-chloro-3,5-diphenyl-1H-pyrazolo[3,4-c]pyridazin-1-yl)acetoyl)piperazin-2-one], the IC50 was ≤ 10 µM.
With `O=C(Cn1nc(-c2ccccc2)c2c(Cl)c(-c3ccccc3)nnc21)N1CCC(O)C1` (stereo not shown) [Compound 70, 2-(4-chloro-3,5-diphenyl-1H-pyrazolo[3,4-c]pyridazin-1-yl)-1-(3-hydroxypyrrolidin-1-yl)ethanone] the IC50 was ≤ 10 µM.
In the case of `O=C(Cn1nc(-c2ccccc2)c2c(Cl)c(-c3ccccc3)nnc21)NCCO` [Compound 71, 2-(4-chloro-3,5-diphenyl-1H-pyrazolo[3,4-c]pyridazin-1-yl)-N-(2-hydroxyethyl)acetamide], the IC50 is reported as ≤ 10 µM.
For `C[C@H](O)CNC(=O)Cn1nc(-c2ccccc2)c2c(Cl)c(-c3ccccc3)nnc21` [Compound 72, (S)-2-(4-chloro-3,5-diphenyl-1H-pyrazolo[3,4-c]pyridazin-1-yl)-N-(2-hydroxypropyl)acetamide], the IC50 was ≤ 10 µM.
With `COCCNC(=O)Cn1nc(-c2ccccc2)c2c(Cl)c(-c3ccccc3)nnc21` [Compound 73, 2-(4-chloro-3,5-diphenyl-1H-pyrazolo[3,4-c]pyridazin-1-yl)-N-(2-methoxyethyl)acetamide] the IC50 was ≤ 10 µM.
`C[C@@H](O)CNC(=O)Cn1nc(-c2ccccc2)c2c(Cl)c(-c3ccccc3)nnc21` [Compound 74, (R)-2-(4-chloro-3,5-diphenyl-1H-pyrazolo[3,4-c]pyridazin-1-yl)-N-(2-hydroxypropyl)acetamide] was tested, and the IC50 was ≤ 10 µM.
In the case of `O=C(Cn1nc(-c2ccc(F)cc2)c2c(Cl)c(-c3ccccc3)nnc21)N1CCOCC1` [Compound 75, 2-(4-chloro-3-(4-fluorophenyl)-5-phenyl-1H-pyrazolo[3,4-c]pyridazin-1-yl)-1-morpholinoethanone], the IC50 is reported as ≤ 10 µM.
`O=C(Cn1nc(-c2cccc(F)c2)c2c(Cl)c(-c3ccccc3)nnc21)N1CCOCC1` [Compound 76, 2-(4-chloro-3-(3-fittorophenyl)-5-phenyl-1H-pyrazolo[3,4-c]pyridazin-1-yl)-1-morpholinoethanone] was tested, and the IC50 was ≤ 5 µM.
`OCCn1nc(-c2ccc(F)cc2)c2c(Cl)c(-c3ccccc3)nnc21` [Compound 77, 2-(4-chloro-3-(4-fittorophenyl)-5-phenyl-1H-pyrazolo[3,4-c]pyridazin-1-yl)ethanol] was tested, and the IC50 was ≤ 5 µM.
With `Fc1ccc(-c2nn(CCN3CCOCC3)c3nnc(-c4ccccc4)c(Cl)c23)cc1` [Compound 78, 4-(2-(4-chloro-3-(4-fluorophenyl)-5-phenyl-1H-pyrazolo[3,4-c]pyridazin-1-yl)ethyl)morpholine] the IC50 was ≤ 10 µM.
`O=C(Cn1nc(-c2cccc(F)c2)c2c(Cl)c(-c3ccccc3)nnc21)N1CCCC1` [Compound 79, 2-(4-chloro-3-(3-fluorophenyl)-5-phenyl-1H-pyrazolo[3,4-c]pyridazin-1-yl)-1-(pyrrolidin-1-yl)ethanone] was tested, and the IC50 was ≤ 5 µM.
With `O=C(Cn1nc(-c2ccc(F)cc2)c2c(Cl)c(-c3ccccc3)nnc21)N1CCCC1` [Compound 80, 2-(4-chloro-3-(4-fluorophenyl)-5-phenyl-1H-pyrazolo[3,4-c]pyridazin-1-yl)-1-(pyrrolidin-1-yl)ethanone] the IC50 was ≤ 10 µM.
For `CN1CCN(CCn2nc(-c3ccccc3)c3c(Cl)c(-c4ccccc4)nnc32)CC1` [Compound 81, 4-chloro-1-(2-(4-methylpiperazin-1-yl)ethyl)-3,5-diphenyl-1H-pyrazolo[3,4-c]pyridazine], the IC50 was ≤ 5 µM.
`C=Cn1nc(-c2ccccc2)c2c(Cl)c(-c3ccccc3)nnc21` [Compound 82, 4-chloro-3,5-diphenyl-1-vinyl-1H-pyrazolo[3,4-c]pyridazine] was tested, and the IC50 was ≤ 10 µM.
In the case of `O[C@@H]1CCN(CCn2nc(-c3ccccc3)c3c(Cl)c(-c4ccccc4)nnc32)C1` [Compound 83, (R)-1-(2-(4-chloro-3,5-diphenyl-1H-pyrazolo[3,4-c]pyridazin-1-yl)ethyl)pyrrolidin-3-ol], the IC50 is reported as ≤ 5 µM.
`CN1CCN(CCn2nc(-c3ccccc3)c3c(Cl)c(-c4ccccc4)nnc32)CC1=O` [Compound 84, 4-(2-(4-chloro-3,5-diphenyl-1H-pyrazolo[3,4-c]pyridazin-1-yl)ethyl)-1-methylpiperazin-2-one] was tested, and the IC50 was ≤ 10 µM.
With `CC(C)(O)Cn1nc(-c2ccccc2)c2c(Cl)c(-c3ccccc3)nnc21` [Compound 85, 1-(4-chloro-3,5-cliphenyl-1H-pyrazolo[3,4-c]pyridazin-1-yl)-2-methylpropan-2-ol] the IC50 was ≤ 10 µM.
In the case of `COC(=O)Cn1nc(-c2ccccc2)c2c(Cl)c(-c3ccccc3)nnc21` [Compound 86, methyl 2-(4-chloro-3,5-diphenyl-1H-pyrazolo[3,4-c]pyridazin-1-yl)acetate], the IC50 is reported as ≤ 10 µM.
`O=C(Cn1nc(-c2ccccc2)c2c(Cl)c(-c3ccccc3)nnc21)N1CCC1` [Compound 87, 1-(azetidin-1-yl)-2-(4-chloro-3,5-diphenyl-1H-pyrazolo[3,4-c]pyridazin-1-yl)ethanone] was tested, and the IC50 was ≤ 10 µM.
For `O=C(Cn1nc(-c2ccccc2)c2c(Cl)c(-c3ccccc3)nnc21)N1CC[C@H](F)C1` [Compound 88, (S)-2-(4-chloro-3,5-diphenyl-1H-pyrazolo[3,4-c]pyridazin-1-yl)-1-(3-fluoropyrrolidin-1-yl)ethanone], the IC50 was ≤ 10 µM.
In the case of `O=C(Cn1nc(-c2ccccc2)c2c(Cl)c(-c3ccccc3)nnc21)N1CC[C@@H](F)C1` [Compound 89, (R)-2-(4-chloro-3,5-diphenyl-1H-pyrazolo[3,4-c]pyridazin-1-yl)-1-(3-fluoropyrrolidin-1-yl)ethanone], the IC50 is reported as ≤ 10 µM.
With `O=C(Cn1nc(-c2ccccc2)c2c(Cl)c(-c3ccccc3)nnc21)N1CC(F)(F)C1` [Compound 90, 2-(4-chloro-3,5-cliphenyl-1H-pyrazolo[3,4-c]pyridazin-1-yl)-1-(3,3-difluoroazetidin-1-yl)ethanone] the IC50 was ≤ 10 µM.
In the case of `CC(O)Cn1nc(-c2ccccc2)c2c(Cl)c(-c3ccccc3)nnc21` (stereo not shown) [Compound 91, 1-(4-chloro-3,5-diphenyl-1H-pyrazolo[3,4-c]pyridazin-1-yl)propan-2-ol], the IC50 is reported as ≤ 10 µM.
For `Clc1c(-c2ccccc2)nnc2c1c(-c1ccccc1)nn2C1COC1` [Compound 93, 4-chloro-1-(oxetan-3-yl)-3,5-diphenyl-1H-pyrazolo[3,4-c]pyridazine], the IC50 was ≤ 10 µM.
In the case of `OCCn1nc(-c2cccc(F)c2)c2c(Cl)c(-c3ccccc3)nnc21` [Compound 94, 2-(4-chloro-3-(3-fluorophenyl)-5-phenyl-1H-pyrazolo[3,4-c]pyridazin-1-yl)ethanol], the IC50 is reported as ≤ 10 µM.
`OCCn1nc(-c2cc(F)cc(F)c2)c2c(Cl)c(-c3ccccc3)nnc21` [Compound 95, 2-(4-chloro-3-(3,5-dilltiorophenyl)-5-phenyl-1H-pyrazolo[3,4-c]pyridazin-1-yl)ethanol] was tested, and the IC50 was ≤ 10 µM.
In the case of `CC(CO)n1nc(-c2ccccc2)c2c(Cl)c(-c3ccccc3)nnc21` (stereo not shown) [Compound 96, 2-(4-chloro-3,5-diphenyl-1H-pyrazolo[3,4-c]pyridazin-1-yl)propan-1-ol], the IC50 is reported as ≤ 10 µM.
In the case of `Clc1c(-c2ccccc2)nnc2c1c(-c1ccccc1)nn2C1CCOC1` (stereo not shown) [Compound 97, 4-chloro-3,5-diphenyl-1-(tetrahydrofuran-3-yl)-1H-pyrazolo[3,4-c]pyridazine], the IC50 is reported as ≤ 10 µM.
